From publication PMC11395111
These are yes or no findings as the source states them, for the method shown. Binding can be weak; no strength is given.

Protein sequences, listed by entry. Tags and fused reporters are not part of them. Lines headed by an entry give the natural chain unless they say otherwise; changes in a name come on top.
UniProt O53943: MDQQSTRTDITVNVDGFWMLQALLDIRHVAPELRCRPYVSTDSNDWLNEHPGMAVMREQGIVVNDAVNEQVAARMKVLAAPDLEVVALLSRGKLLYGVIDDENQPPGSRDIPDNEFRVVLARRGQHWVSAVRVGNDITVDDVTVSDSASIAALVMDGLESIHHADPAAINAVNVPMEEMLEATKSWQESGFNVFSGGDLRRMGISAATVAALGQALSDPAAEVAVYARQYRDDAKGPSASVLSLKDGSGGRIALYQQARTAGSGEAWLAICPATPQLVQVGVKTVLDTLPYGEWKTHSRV
UniProt P9WI05: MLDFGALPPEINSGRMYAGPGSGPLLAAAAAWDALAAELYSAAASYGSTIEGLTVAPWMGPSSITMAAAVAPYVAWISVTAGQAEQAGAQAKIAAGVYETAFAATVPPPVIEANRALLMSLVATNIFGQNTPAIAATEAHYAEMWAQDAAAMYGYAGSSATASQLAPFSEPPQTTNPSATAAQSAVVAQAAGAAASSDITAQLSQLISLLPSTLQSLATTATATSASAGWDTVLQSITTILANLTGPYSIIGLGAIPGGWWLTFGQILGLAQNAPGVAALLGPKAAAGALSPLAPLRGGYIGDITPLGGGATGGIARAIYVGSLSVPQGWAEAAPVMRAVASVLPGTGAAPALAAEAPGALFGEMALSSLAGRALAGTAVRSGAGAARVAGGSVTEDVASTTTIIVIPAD

Molecular target: GST-EspG5 (UniProt O53943)
Experiment: pull-down; […]; 20 mM HEPES pH 7.5, 250 mM NaCl; […]; both purified

For His-tagged PPE32 (from UniProt P9WI05), the binding was “binds”.
